# These are yes or no findings as the source states them, for the method shown. Some binding calls cover weakened binding; strength is not graded here.
# Sequences of proteins named here, by UniProt entry; tags and fusion partners are left off. A change or cut given only in a name is not applied to a line headed by its entry.
# UniProt Q39255: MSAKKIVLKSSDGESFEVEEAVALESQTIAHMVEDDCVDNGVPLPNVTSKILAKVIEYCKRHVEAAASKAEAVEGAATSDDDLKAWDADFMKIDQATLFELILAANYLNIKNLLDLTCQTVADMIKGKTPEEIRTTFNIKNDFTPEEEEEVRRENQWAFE
# Biological target: T1, DBD-COI1 (CORONATINE … 1) (Arabidopsis thaliana) (UniProt O04197)
# T1 sequence: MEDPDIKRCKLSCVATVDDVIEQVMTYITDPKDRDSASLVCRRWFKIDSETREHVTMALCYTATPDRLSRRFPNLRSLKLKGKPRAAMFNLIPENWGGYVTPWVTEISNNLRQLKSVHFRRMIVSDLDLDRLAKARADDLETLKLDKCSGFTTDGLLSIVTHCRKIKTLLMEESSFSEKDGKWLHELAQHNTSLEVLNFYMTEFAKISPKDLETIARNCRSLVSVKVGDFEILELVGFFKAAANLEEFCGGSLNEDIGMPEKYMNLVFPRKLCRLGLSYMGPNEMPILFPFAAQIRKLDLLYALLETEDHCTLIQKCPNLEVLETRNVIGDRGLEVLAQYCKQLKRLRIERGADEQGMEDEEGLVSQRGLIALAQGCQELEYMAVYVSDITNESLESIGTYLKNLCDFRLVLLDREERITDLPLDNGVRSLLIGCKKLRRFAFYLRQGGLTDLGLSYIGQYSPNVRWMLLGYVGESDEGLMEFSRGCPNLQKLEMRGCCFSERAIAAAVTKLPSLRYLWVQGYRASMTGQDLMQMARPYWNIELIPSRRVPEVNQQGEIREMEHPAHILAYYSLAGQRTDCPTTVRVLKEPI
# Experiment: two-hybrid; S. cerevisiae EGY48 [pSH18-34] co-expressing DBD-COI1 and AD-ASK1 or AD-ask1 C118A; SD-U-H-T media with X-Gal, with and without 100 uM SNP (NO donor), ambient light, 48 h; beta-galactosidase reporter
row,Substance,binding
1,AD-ask1 C118A (from UniProt Q39255 1-160),binds
2,"AD-ASK1 (Arabidopsis thaliana SKP1, S-PHASE KINASE-ASSOCIATED PROTEIN 1) (from UniProt Q39255 1-160)",binds

# — publication PMC8854210
